Data on one substance can be found in article PMC11670205 (Frontiers in Immunology, 2024).

Amino acid sequences for entries named in this document (tags omitted). A change or cut given only in a name is not applied to a line headed by its entry. Residues count along the entry.
UniProt Q9HC73: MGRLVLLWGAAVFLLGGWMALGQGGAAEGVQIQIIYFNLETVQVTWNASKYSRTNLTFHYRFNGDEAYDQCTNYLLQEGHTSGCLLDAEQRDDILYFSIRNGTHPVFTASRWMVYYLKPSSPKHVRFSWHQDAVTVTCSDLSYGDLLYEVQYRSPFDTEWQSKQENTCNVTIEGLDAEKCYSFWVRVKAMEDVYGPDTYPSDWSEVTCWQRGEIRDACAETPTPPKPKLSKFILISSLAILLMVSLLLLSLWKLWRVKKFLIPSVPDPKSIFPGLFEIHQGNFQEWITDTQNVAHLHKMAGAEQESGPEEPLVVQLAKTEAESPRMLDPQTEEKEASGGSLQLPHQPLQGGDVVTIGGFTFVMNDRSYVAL
UniProt P16871: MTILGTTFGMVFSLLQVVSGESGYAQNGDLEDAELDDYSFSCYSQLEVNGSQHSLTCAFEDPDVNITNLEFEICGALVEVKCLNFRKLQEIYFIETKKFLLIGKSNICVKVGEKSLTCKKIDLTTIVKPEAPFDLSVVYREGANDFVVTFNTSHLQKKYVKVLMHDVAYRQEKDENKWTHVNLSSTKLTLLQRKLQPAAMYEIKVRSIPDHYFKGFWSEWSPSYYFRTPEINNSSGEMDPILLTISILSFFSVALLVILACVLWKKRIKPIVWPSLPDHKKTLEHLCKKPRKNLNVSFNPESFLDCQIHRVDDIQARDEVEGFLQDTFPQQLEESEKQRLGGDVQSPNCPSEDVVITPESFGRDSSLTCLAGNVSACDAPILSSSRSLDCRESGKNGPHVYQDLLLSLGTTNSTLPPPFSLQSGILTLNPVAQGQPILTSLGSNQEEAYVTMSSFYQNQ
UniProt Q969D9, residues 29-159: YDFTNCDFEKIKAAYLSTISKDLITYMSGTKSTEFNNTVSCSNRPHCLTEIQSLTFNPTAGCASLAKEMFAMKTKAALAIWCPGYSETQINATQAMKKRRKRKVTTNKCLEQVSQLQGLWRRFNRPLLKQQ

No constants are given. Whether binding was seen depends on the method and setting. Some binding calls cover weakened binding; strength is not graded here.

The assay addresses human TSLP receptor complex composed of IL-7Rα and TSLPR expressed on cell surface of transfected HEK293T (human) (UniProt Q9HC73+P16871). Put plainly: flow cytometry on cells; 5 ng/mL biotinylated human TSLP on HEK293T cells co-transfected with human IL-7Rα and TSLPR, 2 hours; PE-streptavidin; only the binder purified.

Turning to “biotinylated human TSLP (from UniProt Q969D9 29-159) (ligand)”, the binding result was “binds”.
